The results in this text go back to patent US12150933B2, “IL-8 inihibitors for use in the treatment of some urological disorders” (DOMPÉ FARMACEUTICI S.P.A., priority 2015, dated 2024).

The test system of the series is CYP-induced visceral pain. The series is described as follows: Chronic administration in CYP-induced visceral pain in rats (Von Frey withdrawal threshold). Type of series: in vivo, rat. As to conditions: 3 mg/kg s.c. On the procedure: Cyclophosphamide, 75 mg/kg i.p. for 3 times, every 3rd day, was dissolved in distilled water and administered to animals by i.p. route (volume 5 mL/kg). Appropriate weight of Compd. 1 or Compd. 2 was dissolved in saline, all doses of test compounds were administered by oral gavage (volume 2 mL/kg).
On the day of the experiment, each rat was placed individually in a clear plastic testing box with a grid floor and allowed to acclimatize for at least 10 min. Visceral sensitivity in response to mechanical stimuli was determined using Von Frey monofilaments (1-2-4-8-15-26-60-100 g) applied in the lower abdominal area (close to the urinary bladder) and on both hind paws plantar surface (to evaluate referred pain).
Each Von Frey monofilament was applied 5 times at the level of abdomen and 3 times at the level of each paw, in an ascending order of strength at interval of 5 sec. A stimulus-induced response was considered positive when the paw was sharply withdrawn, paw licking occurred, or the animal flinched upon removal of the filament. […]
Repeated treatment with CYP (75 mg/kg i.p. for 3 times, every 3rd day), induces a strong decrease in withdrawal thresholds to noxious stimulus measured at the level of low abdomen and hind-paws.
Compd. […] Nociceptive hypersensitivity was evaluated about 18 hours after the last administration of Compd. […]

The structures appear in SMILES notation.

As for `CN1CC[C@]23c4c5ccc(O)c4O[C@H]2[C@@H](O)C=C[C@H]3[C@H]1C5` [morphine, reference compound], the side effects result is “marked and well known side effects (sedation, respiratory effects)”.
